# The list shows a part of the results.
# Protein sequences, listed by entry. Tags and fused reporters are not part of them. Lines headed by an entry give the natural chain unless they say otherwise; changes in a name come on top.
# UniProt P06396, whole entry: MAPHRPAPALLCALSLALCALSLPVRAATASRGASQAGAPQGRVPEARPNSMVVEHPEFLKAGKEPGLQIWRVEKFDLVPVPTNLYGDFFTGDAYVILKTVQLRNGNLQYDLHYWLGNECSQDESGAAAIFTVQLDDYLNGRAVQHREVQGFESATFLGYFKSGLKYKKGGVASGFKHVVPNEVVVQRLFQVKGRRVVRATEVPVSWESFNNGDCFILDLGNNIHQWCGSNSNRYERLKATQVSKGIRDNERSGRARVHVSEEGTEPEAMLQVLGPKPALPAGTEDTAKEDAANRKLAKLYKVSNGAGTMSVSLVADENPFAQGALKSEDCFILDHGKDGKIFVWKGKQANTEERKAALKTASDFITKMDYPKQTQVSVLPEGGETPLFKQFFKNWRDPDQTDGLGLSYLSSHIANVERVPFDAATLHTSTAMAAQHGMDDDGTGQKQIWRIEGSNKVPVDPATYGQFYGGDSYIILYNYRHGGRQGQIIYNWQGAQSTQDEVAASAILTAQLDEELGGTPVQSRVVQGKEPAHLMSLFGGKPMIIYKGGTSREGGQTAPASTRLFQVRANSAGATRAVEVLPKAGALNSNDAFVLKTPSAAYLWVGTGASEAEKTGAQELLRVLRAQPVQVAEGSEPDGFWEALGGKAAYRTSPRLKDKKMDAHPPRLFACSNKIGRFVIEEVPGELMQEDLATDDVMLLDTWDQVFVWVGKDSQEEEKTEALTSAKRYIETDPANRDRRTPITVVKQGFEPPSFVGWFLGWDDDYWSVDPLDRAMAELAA
# UniProt P63218: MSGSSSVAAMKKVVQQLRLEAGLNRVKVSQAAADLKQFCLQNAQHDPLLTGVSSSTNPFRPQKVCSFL
# UniProt Q13439: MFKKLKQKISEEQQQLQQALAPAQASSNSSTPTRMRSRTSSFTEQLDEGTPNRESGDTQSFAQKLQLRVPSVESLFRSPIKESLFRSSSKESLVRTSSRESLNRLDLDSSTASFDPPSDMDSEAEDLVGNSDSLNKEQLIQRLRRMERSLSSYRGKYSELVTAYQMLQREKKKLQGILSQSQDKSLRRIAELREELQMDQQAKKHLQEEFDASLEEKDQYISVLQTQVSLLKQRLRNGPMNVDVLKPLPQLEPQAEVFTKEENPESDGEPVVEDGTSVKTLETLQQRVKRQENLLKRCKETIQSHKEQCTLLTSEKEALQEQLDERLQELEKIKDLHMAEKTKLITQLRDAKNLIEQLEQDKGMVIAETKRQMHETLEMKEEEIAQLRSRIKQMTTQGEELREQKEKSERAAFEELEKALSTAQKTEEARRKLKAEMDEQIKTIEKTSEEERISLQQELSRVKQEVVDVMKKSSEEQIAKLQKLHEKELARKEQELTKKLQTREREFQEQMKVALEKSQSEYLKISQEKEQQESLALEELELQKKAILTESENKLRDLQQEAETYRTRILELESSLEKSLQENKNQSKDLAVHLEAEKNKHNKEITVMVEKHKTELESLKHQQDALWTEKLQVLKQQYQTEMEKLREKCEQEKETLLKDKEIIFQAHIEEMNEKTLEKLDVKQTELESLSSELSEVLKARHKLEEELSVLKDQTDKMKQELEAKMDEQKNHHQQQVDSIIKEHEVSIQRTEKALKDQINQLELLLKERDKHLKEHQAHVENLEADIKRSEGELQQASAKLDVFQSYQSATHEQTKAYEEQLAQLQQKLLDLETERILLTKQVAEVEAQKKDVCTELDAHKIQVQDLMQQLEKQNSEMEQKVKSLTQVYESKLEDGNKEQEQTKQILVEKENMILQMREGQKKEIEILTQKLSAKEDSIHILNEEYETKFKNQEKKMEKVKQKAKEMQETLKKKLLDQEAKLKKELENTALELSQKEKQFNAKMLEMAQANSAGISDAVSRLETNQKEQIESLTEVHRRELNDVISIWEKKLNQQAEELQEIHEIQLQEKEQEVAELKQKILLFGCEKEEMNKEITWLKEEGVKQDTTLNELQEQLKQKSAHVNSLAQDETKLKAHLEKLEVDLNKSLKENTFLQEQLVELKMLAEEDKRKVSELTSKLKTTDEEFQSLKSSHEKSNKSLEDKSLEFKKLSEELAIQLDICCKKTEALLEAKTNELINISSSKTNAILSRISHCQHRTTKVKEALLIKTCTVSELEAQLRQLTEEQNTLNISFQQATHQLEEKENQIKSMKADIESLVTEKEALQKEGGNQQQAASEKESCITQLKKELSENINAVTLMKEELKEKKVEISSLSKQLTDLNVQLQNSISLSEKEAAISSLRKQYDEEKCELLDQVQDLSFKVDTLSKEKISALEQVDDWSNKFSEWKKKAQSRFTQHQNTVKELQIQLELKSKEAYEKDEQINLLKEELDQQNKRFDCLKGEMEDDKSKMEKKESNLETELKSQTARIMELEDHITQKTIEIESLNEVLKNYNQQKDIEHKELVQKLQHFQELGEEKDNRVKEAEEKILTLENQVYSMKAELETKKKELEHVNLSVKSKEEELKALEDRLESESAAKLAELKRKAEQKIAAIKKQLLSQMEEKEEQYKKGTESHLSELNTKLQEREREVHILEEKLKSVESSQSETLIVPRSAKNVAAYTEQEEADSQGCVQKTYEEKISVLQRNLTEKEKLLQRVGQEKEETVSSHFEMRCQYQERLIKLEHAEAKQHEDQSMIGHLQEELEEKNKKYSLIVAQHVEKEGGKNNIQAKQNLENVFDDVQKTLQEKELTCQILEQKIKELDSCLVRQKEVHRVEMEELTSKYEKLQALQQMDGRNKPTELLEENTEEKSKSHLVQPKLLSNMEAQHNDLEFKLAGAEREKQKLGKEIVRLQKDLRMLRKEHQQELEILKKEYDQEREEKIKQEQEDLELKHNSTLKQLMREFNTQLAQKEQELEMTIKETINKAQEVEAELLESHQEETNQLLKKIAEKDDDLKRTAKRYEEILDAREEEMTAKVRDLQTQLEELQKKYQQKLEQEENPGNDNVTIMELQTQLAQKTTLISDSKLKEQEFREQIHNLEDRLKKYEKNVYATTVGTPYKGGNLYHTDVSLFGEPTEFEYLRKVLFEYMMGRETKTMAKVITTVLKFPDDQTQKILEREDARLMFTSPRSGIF
# UniProt Q9HAV7: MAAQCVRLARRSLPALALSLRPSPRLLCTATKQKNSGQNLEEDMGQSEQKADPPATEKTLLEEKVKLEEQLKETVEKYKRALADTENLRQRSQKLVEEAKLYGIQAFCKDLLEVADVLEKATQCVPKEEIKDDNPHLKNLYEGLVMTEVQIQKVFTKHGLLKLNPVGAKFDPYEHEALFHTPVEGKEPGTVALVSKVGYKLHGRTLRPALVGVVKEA
# UniProt P46926: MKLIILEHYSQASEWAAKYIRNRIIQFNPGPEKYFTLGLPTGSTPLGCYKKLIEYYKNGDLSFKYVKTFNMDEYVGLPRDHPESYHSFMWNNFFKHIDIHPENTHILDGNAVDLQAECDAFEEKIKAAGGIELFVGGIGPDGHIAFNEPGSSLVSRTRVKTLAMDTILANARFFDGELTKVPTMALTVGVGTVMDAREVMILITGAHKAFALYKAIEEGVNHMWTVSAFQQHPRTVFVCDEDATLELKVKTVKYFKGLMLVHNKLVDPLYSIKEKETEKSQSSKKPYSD
# UniProt P31150: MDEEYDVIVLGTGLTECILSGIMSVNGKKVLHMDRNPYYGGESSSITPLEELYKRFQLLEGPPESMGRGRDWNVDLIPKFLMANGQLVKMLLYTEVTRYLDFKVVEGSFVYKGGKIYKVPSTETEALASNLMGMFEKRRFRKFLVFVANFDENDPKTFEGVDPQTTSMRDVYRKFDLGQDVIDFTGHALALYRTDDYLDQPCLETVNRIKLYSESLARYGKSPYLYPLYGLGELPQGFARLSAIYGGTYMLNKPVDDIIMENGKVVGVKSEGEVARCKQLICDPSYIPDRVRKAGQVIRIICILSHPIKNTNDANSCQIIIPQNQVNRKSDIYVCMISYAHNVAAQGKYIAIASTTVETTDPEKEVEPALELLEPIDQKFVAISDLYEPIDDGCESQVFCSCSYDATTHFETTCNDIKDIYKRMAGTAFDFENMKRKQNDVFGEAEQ
# UniProt O43292: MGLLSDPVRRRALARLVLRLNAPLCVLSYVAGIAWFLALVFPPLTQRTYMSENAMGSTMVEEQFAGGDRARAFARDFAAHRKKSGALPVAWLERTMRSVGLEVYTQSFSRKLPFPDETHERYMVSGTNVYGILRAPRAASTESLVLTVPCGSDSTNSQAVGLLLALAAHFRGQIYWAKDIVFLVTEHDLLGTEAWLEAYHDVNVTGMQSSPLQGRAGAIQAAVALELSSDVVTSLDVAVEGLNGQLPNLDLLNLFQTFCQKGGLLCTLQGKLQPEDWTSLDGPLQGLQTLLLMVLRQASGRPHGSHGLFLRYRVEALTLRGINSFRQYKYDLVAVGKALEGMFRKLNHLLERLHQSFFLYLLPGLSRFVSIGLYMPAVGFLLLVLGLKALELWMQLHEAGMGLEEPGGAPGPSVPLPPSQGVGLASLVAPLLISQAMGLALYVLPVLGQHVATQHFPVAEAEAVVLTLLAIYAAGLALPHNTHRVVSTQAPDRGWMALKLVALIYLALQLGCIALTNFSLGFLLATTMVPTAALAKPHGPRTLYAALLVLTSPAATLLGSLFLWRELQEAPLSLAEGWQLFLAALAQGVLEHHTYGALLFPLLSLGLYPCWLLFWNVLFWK
# UniProt Q4V328: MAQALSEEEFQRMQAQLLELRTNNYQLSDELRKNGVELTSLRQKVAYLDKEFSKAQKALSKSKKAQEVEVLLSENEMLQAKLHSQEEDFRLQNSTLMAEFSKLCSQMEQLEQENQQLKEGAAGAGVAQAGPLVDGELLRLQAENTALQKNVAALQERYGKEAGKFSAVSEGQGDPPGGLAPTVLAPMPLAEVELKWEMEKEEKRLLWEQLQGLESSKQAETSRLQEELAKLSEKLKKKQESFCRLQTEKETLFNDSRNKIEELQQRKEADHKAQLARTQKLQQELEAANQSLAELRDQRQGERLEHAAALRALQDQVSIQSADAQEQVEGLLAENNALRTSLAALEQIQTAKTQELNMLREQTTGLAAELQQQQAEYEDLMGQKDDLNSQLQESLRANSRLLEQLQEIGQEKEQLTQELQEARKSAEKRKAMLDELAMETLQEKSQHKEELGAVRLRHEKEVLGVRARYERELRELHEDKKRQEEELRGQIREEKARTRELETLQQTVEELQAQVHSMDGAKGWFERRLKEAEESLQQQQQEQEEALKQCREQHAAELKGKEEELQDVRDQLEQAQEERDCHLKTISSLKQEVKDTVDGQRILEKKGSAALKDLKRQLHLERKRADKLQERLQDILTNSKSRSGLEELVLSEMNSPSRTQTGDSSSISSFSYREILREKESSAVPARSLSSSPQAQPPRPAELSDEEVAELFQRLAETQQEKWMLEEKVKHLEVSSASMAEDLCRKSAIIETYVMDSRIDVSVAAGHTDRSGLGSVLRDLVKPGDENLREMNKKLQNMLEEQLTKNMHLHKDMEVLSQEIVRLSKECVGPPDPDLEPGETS
# UniProt Q9NRV9: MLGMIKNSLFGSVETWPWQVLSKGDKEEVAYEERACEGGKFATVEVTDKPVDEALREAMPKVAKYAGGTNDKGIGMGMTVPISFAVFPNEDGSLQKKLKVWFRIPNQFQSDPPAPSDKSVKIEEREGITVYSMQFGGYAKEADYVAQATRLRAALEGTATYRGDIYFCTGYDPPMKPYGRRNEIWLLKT
# UniProt Q13098: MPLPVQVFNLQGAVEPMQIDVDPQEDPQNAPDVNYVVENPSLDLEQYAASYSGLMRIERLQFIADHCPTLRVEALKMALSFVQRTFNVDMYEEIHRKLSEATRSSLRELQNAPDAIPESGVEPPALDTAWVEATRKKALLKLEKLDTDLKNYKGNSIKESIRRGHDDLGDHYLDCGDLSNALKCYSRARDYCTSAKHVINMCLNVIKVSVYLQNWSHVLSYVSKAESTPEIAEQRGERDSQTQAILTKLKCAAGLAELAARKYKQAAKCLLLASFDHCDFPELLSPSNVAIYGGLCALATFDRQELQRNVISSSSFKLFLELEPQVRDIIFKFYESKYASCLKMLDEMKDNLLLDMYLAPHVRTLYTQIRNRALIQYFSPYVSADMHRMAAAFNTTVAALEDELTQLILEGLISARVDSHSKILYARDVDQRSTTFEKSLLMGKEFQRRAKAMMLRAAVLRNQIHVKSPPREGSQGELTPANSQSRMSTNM
# UniProt Q8N335: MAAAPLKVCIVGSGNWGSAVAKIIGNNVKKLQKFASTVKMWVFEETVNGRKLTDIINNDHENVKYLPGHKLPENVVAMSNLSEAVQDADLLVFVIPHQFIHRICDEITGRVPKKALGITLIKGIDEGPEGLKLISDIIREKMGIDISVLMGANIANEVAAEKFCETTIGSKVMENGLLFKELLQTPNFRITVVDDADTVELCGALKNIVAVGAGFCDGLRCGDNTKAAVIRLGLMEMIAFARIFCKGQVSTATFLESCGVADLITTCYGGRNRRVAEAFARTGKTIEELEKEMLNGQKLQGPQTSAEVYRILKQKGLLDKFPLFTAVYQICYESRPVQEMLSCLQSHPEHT
# Compound: COc1ccc(Cn2ccc3ccc(C(=O)NO)cc32)cc1
# Assay: dose-dependent thermal stabilisation call (2D-TPP, DLPTP, 10% FDR) (binary (1 = stabilised)); higher = stabilised by the compound
# Conditions: system: HL-60 intact cells; concentration range 0.04-10 µM
row,Target,dose-dependent thermal stabilisation call
1,HIPK1 (UniProt Q86Z02),inactive: 0
2,GSDMD (UniProt P57764),inactive: 0
3,GSN (UniProt P06396),inactive: 0
4,HLA-DRB1 (UniProt P01911),inactive: 0
5,HDHD2 (UniProt Q9H0R4),inactive: 0
6,GNG5 (UniProt P63218),inactive: 0
7,GLA (UniProt P06280),inactive: 0
8,GLT25D1 (UniProt Q8NBJ5),inactive: 0
9,GPSN2 (UniProt Q9NZ01),inactive: 0
10,GOLGA4 (UniProt Q13439),inactive: 0
11,GLRX5 (UniProt Q86SX6),inactive: 0
12,GLRX3 (UniProt O76003),inactive: 0
13,GCLC (UniProt P48506),inactive: 0
14,GRPEL1 (UniProt Q9HAV7),inactive: 0
15,GNPDA1 (UniProt P46926),inactive: 0
16,GLTP (UniProt Q9NZD2),inactive: 0
17,GOSR2 (UniProt O14653),inactive: 0
18,GCN1L1 (UniProt Q92616),inactive: 0
19,GNB1 (UniProt P62873),inactive: 0

row,Target,dose-dependent thermal stabilisation call
1,HDDC3 (UniProt Q8N4P3),inactive: 0
2,GOLGA3 (UniProt Q08378),inactive: 0
3,GTF3C4 (UniProt Q9UKN8),inactive: 0
4,HINT1 (UniProt P49773),inactive: 0
5,GDI1 (UniProt P31150),inactive: 0
6,GTF3A (UniProt Q92664),inactive: 0
7,GPAA1 (UniProt O43292),inactive: 0
8,HEBP2 (UniProt Q9Y5Z4),inactive: 0
9,HDAC8 (UniProt Q9BY41),active: 1
10,GRIPAP1 (UniProt Q4V328),inactive: 0
11,HEBP1 (UniProt Q9NRV9),inactive: 0
12,HIST1H4A (UniProt P62805),active: 1
13,GTF2H3 (UniProt Q13889),inactive: 0
14,GTPBP2 (UniProt Q9BX10),inactive: 0
15,GSE1 (UniProt Q14687),inactive: 0
16,GPS1 (UniProt Q13098),inactive: 0
17,GNB1L (UniProt Q9BYB4),inactive: 0
18,GPD1L (UniProt Q8N335),inactive: 0

# Reformatted: results already given.
row | Target | dose-dependent thermal stabilisation call
11 | HEBP1 (UniProt Q9NRV9) | inactive: 0
12 | HIST1H4A (UniProt P62805) | active: 1

# Reference: the supplement of paper PMC7666118
